Results from patent EP1352977A2, “Novel Desulfitobacterium strain for the degradation of chloroalkenes” (UNIVERSITEIT GENT, priority 2002, dated 2003).
The amount applied is not stated for every result.

Tested on: Desulfitobacterium strain DCA1
Assay: Substrate range determination: growth on and dechlorination product from chlorinated substrates
Type: cell-based, Desulfitobacterium dichloroeliminans strain DCA1

`CCC(Cl)CCl` (stereo not shown) [1,2-DCB, 1,2-dichlorobutane] was tested, and the Product was 1-butene.
